For at least one entry, the source does not settle the construct or the ends of the probe. Weaker means in comparison with the reference protein, sequence or condition of that experiment. At least one verdict rests on a figure or table, not on a statement of the authors. Protein sequences can lack the tags named with them.
Biological target: T1, UHRF2 SRA domain (human) (UniProt Q96PU4)
T1 sequence (looked up): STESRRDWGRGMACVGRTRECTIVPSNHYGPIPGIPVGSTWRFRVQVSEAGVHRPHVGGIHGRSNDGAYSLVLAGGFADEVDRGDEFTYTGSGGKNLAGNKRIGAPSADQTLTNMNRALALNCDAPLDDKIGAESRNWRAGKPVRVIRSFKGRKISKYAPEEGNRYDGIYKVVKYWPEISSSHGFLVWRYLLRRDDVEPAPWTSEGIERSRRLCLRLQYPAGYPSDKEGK
Assay: EMSA
Conditions: 0.5 uM DNA, compared with hmC, 20 mM HEPES pH 7.9, 100 mM NaCl, 2 mM MgCl2, 2 mM DTT, 0.1% NP-40, 5% glycerol, 30 min on ice, 6% PAGE in 0.25X TBE, recombinant protein, residues 419-648, protein details: His

Sequence	binding result (5mC at position 15 of strand 1 (hemimethylated CpG), GelRed stain)	binding result (GelRed …)
GAAGCTGGGACGCGCGCCGGGAGAGTGCAA (double strand) [TET-disf-mC/TET-disf-rev]	binds more weakly	
GAAGCTGGGACGCGCGCCGGGAGAGTGCAA (double strand) [TET-disf/TET-disf-rev]		binds more weakly

— paper PMC8786823, “Flanking sequences influence the activity of TET1 and TET2 methylcytosine dioxygenases and affect genomic 5hmC patterns”
